## Library screen at single concentrations

Sequences of proteins named here, by UniProt entry; tags and fusion partners are left off. Residues count along the entry.
UniProt Q4DA54, 1-478: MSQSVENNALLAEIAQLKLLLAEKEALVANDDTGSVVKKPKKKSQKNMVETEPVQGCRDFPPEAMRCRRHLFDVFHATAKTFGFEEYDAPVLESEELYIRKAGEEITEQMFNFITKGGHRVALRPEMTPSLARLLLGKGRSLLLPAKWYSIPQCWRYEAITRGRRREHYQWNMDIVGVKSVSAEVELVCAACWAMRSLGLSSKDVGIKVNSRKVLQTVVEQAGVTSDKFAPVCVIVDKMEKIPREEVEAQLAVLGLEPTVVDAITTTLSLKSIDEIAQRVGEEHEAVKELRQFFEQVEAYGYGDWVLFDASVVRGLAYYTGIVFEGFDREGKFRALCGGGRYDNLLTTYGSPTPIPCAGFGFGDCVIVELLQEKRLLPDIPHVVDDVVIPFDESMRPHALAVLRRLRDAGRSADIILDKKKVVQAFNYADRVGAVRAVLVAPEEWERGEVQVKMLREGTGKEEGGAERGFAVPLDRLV
UniProt Q8IDJ8, 1-583: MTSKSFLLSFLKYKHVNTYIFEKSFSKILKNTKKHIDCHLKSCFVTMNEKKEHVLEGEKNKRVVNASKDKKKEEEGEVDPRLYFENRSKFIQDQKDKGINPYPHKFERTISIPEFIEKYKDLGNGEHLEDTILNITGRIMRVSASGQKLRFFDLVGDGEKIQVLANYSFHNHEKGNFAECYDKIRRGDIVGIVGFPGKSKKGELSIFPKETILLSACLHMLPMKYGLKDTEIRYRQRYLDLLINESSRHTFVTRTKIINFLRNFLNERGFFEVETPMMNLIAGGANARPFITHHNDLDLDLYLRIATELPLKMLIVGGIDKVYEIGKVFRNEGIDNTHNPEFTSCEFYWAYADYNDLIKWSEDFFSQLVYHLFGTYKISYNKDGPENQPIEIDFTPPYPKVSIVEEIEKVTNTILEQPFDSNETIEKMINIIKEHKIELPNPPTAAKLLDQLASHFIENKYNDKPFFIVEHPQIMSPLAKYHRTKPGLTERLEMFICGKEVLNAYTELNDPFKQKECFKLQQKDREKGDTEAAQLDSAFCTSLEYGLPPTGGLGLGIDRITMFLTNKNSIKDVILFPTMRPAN

Measurements from “University of Dundee, Small-Polar-MMV Screening Library” (2021), ChEMBL document CHEMBL3988442.

TcHisRS: 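Enzyme assay of histidyl-tRNA synthetase; the read-out is not stated. Target: Histidine-tRNA ligase, Trypanosoma cruzi CL Brener (UniProt Q4DA54). Compounds at 30 µM. The record gives no direction; compounds that gave an IC50 in retests scored well above the rest, so higher reads as stronger inhibition. Of about 69,000 compounds tested this way, about 31 (0.045%) reached 50% or more in at least one test.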
PfKRS1: 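Lysine-tRNA ligase, Plasmodium falciparum 3D7 (UniProt Q8IDJ8). Enzyme assay of the cytosolic lysyl-tRNA synthetase in 384-well plates, read by luminescence. Compounds at 30 µM. Direction is inferred from only a few compounds that gave an IC50; most scored high, so higher reads as stronger inhibition. About 69,000 compounds were tested under these conditions; 0.071% (about 49) showed 50% or more at least once.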

Each number is a percent effect as filed.
The record does not define 0% and 100%; most values in the screen are far below 50% and negative numbers occur (in some assays of this library far below -100).
The compounds are a random part of those screened.

With Cc1cnn(CC2CCCCN2Cc2nc(N)c3ccccc3n2)c1 (configuration not stated) the screen gave TcHisRS: 6.767%; PfKRS1: 12.03%.
With Cc1cc2c(c(-c3c[nH]c(C)n3)c1)OC(CN)C2 (configuration not stated) the screen gave TcHisRS: 17.65%; PfKRS1: 3.741%.
With COCC1CN(C(=O)c2cccc(C)n2)Cc2ncnn2C1 (configuration not stated) the screen gave TcHisRS: 7.921%; PfKRS1: 0%.
With Cc1nn(C)c(C)c1C1CCCN1Cc1nnc(C2CC2)n1C (configuration not stated) the screen gave TcHisRS: 4.255%; PfKRS1: 2.744%.
With O=C(Nc1ccc2c(c1)OCO2)Nc1cnn(C2CCOCC2)c1 the screen gave TcHisRS: 5.288%; PfKRS1: 1.296%.
With CC(=O)N1CCC(N2CCN3C(=O)N(Cc4ccccn4)C[C@H]3C2)CC1 the screen gave TcHisRS: 4.478%; PfKRS1: 4.062%.
With OCCOc1ccc(NCc2cc(F)cc3cccnc23)cn1 the screen gave TcHisRS: 9.091%; PfKRS1: 0.5258%.
With CNC(=O)[C@@H]1C[C@@H](N)CN1C(=O)CCSCc1ccccc1 the screen gave TcHisRS: 7.071%; PfKRS1: 7.051%.
With CC[C@@H]1N(Cc2nccs2)CCC[C@]12CCC(=O)N2CCOC the screen gave TcHisRS: -3.738%; PfKRS1: -0.8103%.
With O=c1cc(-c2cccnc2)nc(-c2ccc(CN3CC[C@H](O)C3)cc2)[nH]1 the screen gave TcHisRS: -4.469%; PfKRS1: 2.469%.
With CC1(C)COCCN1C(=O)c1ccc(Cn2cncn2)cc1 the screen gave TcHisRS: 3.191%; PfKRS1: 4.772%.
With CN(Cc1ccccc1)C(=O)Cn1nc(N2CCSCC2)ccc1=O the screen gave TcHisRS: 6.736%; PfKRS1: 4.335%.
With Cc1nc(C2CCCN(C(=O)c3ccco3)C2)no1 (configuration not stated) the screen gave TcHisRS: 4.135%; PfKRS1: -4.791%.
With Cc1nc(NC(=O)NC(CS(C)(=O)=O)c2ccccc2)sc1C (configuration not stated) the screen gave TcHisRS: -1.22%; PfKRS1: 3.942%.
With O=C(Cc1noc(C(=O)NCCO)n1)Nc1cccc(C(F)(F)F)c1 the screen gave TcHisRS: -0.5181%; PfKRS1: -0.5051%.
With Cc1cccc(N2CC3(CCN(S(=O)(=O)c4ccccc4)C3)CC2=O)c1 (configuration not stated) the screen gave TcHisRS: 2.941%; PfKRS1: 13.19%.
With O=C(O)c1c(Cl)ncn1-c1ccccc1 the screen gave TcHisRS: 5%; PfKRS1: -7.327%.
With CCCN(CC1COc2ccccc2O1)C(=O)C1=NN(C)C(=O)CC1 (configuration not stated) the screen gave TcHisRS: 3.012%; PfKRS1: -1.022%.
With CCOCCCNc1ncc(-c2onc(C)c2C)c(-c2ccco2)n1 the screen gave TcHisRS: 1.149%; PfKRS1: 0.2705%.
With Clc1ccccc1CCN1CCN(c2ccc3nncn3n2)CC1 the screen gave TcHisRS: 13.71%; PfKRS1: -0.4841%.
With Cc1nc(-c2ccsc2)ccc1C(=O)O the screen gave TcHisRS: 5.691%; PfKRS1: 0.2932%.
With O=C1CN(Cc2cn(CC3CCCN(C4CCSCC4)C3)nn2)CCN1 (configuration not stated) the screen gave TcHisRS: 9.091%; PfKRS1: 6.829%.
With COc1cccc(N2CCC(CNCc3cccc(C#N)c3)C2)c1 (configuration not stated) the screen gave TcHisRS: 2.326%; PfKRS1: -0.3337%.
With O=C(CSC1CCc2ccccc2NC1=O)NCc1ccccc1 (configuration not stated) the screen gave TcHisRS: 3.636%; PfKRS1: 7.978%.
With Cc1cc(C)n(C2CCN(c3ncnc4c3CCC4)C2)n1 (configuration not stated) the screen gave TcHisRS: 0%; PfKRS1: 0.8945%.

3 of the entries, repeated:

| compound | TcHisRS | PfKRS1 |
|---|---|---|
| `OCCOc1ccc(NCc2cc(F)cc3cccnc23)cn1` | 9.091 | 0.5258 |
| `Cc1nn(C)c(C)c1C1CCCN1Cc1nnc(C2CC2)n1C` (configuration not stated) | 4.255 | 2.744 |
| `CC[C@@H]1N(Cc2nccs2)CCC[C@]12CCC(=O)N2CCOC` | -3.738 | -0.8103 |